Assay results reported in patent US20240360177A1, “PEPTIDES WITH ANTIMICROBIAL ACTIVITIES” (priority 2021, published 2024).
Part of at least one peptide drawing is inferred or uncertain, most often the ends. Some entries repeat one wording, which the source may state once for all of them. Starred links: 1 amine or outer side, 2 acyl side, 3 side chain; linkers in the order of their positions; H or OH if unused. Non-standard residues stand in square brackets, D forms with d. Residues, ends and D or L forms follow the SMILES beside them. NH(CH2)9CO = O=C(CCCCCCCCCN[*:1])[*:2]; Aoc = NCCCCCCCC(=O)O; βAla = NCCC(=O)O

Columns and labels:
Scedosporium spp. = details: N = 2 strains; 72 hrs
[1] = system: Cryptococcus neoformans ATCC strain MYA-4564; assay: Time-kill kinetic study, C. neoformans; format: cell-based; details: 3-log drop in CFU/mL from time zero; 2× and 8× the MIC
[2] = system: Candida albicans ATCC strain 90028; assay: Time-kill kinetic study, C. albicans; format: cell-based; details: 3-log drop in CFU/mL from time zero; 2× and 8× the MIC

| Structure (SMILES) | MIC Range Scedosporium spp. (Scedosporium spp.) [µg/mL] | Fungicidal activity in time-kill kinetics assay, C. neoformans [1] | Fungicidal activity in time-kill kinetics assay, C. albicans [2] |
| --- | --- | --- | --- |
| N=C(N)NCCC[C@@H](N)C(=O)N[C@@H](CCCNC(=N)N)C(=O)N[C@H](CCCNC(=N)N)C(=O)NCCC(=O)N[C@H](CCCNC(=N)N)C(=O)N[C@@H](CCCNC(=N)N)C(=O)N[C@H](CCCNC(=N)N)C(=O)NCCC(=O)N[C@H](CCCNC(=N)N)C(=O)N[C@@H](CCCNC(=N)N)C(=O)N[C@H](CCCNC(=N)N)C(=O)N[C@@H](CCCNC(=N)N)C(=O)NCCC(=O)N[C@H](CCCNC(=N)N)C(=O)N[C@@H](CCCNC(=N)N)C(=O)N[C@H](CCCNC(=N)N)C(=O)N[C@@H](CCCNC(=N)N)C(=O)NCCCCCCCC(=O)O [SEQ ID NO: 16, rRr-(Apr)-rRr-(Apr)-rRrR-(Apr)-rRrR-(Aoa)] (H-[dR]R[dR][βAla][dR]R[dR][βAla][dR]R[dR]R[βAla][dR]R[dR]R[Aoc]-OH) | ≤0.12 to 0.25 | – | – |
| N=C(N)NCCC[C@@H](N)C(=O)N[C@@H](CCCNC(=N)N)C(=O)N[C@H](CCCNC(=N)N)C(=O)NCCCCCCCCCC(=O)N[C@H](CCCNC(=N)N)C(=O)N[C@@H](CCCNC(=N)N)C(=O)N[C@H](CCCNC(=N)N)C(=O)NCCCCCCCC(=O)N[C@H](CCCNC(=N)N)C(=O)N[C@@H](CCCNC(=N)N)C(=O)N[C@H](CCCNC(=N)N)C(=O)N[C@@H](CCCNC(=N)N)C(=O)NCCCCCCCC(=O)N[C@H](CCCNC(=N)N)C(=O)N[C@@H](CCCNC(=N)N)C(=O)N[C@H](CCCNC(=N)N)C(=O)N[C@@H](CCCNC(=N)N)C(=O)O [SEQ ID NO: 32, rRr-(Ada)-rRr-(Aoa)-rRrR-(Aoa)-rRrR] (H-[dR]R[dR][NH(CH2)9CO][dR]R[dR][Aoc][dR]R[dR]R[Aoc][dR]R[dR]R-OH) | – | rapid fungicidal activity | rapid fungicidal activity |
| N=C(N)NCCC[C@@H](N)C(=O)N[C@@H](CCCNC(=N)N)C(=O)N[C@H](CCCNC(=N)N)C(=O)NCCC(=O)N[C@H](CCCNC(=N)N)C(=O)N[C@@H](CCCNC(=N)N)C(=O)N[C@H](CCCNC(=N)N)C(=O)NCCC(=O)N[C@H](CCCNC(=N)N)C(=O)N[C@@H](CCCNC(=N)N)C(=O)N[C@H](CCCNC(=N)N)C(=O)N[C@@H](CCCNC(=N)N)C(=O)NCCC(=O)N[C@H](CCCNC(=N)N)C(=O)N[C@@H](CCCNC(=N)N)C(=O)N[C@H](CCCNC(=N)N)C(=O)N[C@@H](CCCNC(=N)N)C(=O)O [SEQ ID NO: 8, rRr-(Apr)-rRr-(Apr)-rRrR-(Apr)-rRrR] (H-[dR]R[dR][βAla][dR]R[dR][βAla][dR]R[dR]R[βAla][dR]R[dR]R-OH) | – | rapid fungicidal activity | rapid fungicidal activity |
| N=C(N)NCCC[C@@H](N)C(=O)N[C@@H](CCCNC(=N)N)C(=O)N[C@H](CCCNC(=N)N)C(=O)NCCC(=O)N[C@H](CCCNC(=N)N)C(=O)N[C@@H](CCCNC(=N)N)C(=O)N[C@H](CCCNC(=N)N)C(=O)NCCC(=O)N[C@H](CCCNC(=N)N)C(=O)N[C@@H](CCCNC(=N)N)C(=O)N[C@H](CCCNC(=N)N)C(=O)N[C@@H](CCCNC(=N)N)C(=O)NCCC(=O)N[C@H](CCCNC(=N)N)C(=O)N[C@@H](CCCNC(=N)N)C(=O)N[C@H](CCCNC(=N)N)C(=O)N[C@@H](CCCNC(=N)N)C(N)=O [SEQ ID NO: 7, rRr-(Apr)-rRr-(Apr)-rRrR-(Apr)-rRrR-NH2] (H-[dR]R[dR][βAla][dR]R[dR][βAla][dR]R[dR]R[βAla][dR]R[dR]R-NH2) | – | rapid fungicidal activity | rapid fungicidal activity |
